Paper PMC4773067 (PLoS ONE, 2016)
These are yes or no findings as the source states them, for the method shown. Binding seen in cells or lysates may run through a third protein. Some results given as binding are weak or reduced against the parent protein; the word gives no strength.

By UniProt entry, the sequences of proteins in these tests, tags left out. Residues count along the entry.
UniProt P47872, residues 23-440: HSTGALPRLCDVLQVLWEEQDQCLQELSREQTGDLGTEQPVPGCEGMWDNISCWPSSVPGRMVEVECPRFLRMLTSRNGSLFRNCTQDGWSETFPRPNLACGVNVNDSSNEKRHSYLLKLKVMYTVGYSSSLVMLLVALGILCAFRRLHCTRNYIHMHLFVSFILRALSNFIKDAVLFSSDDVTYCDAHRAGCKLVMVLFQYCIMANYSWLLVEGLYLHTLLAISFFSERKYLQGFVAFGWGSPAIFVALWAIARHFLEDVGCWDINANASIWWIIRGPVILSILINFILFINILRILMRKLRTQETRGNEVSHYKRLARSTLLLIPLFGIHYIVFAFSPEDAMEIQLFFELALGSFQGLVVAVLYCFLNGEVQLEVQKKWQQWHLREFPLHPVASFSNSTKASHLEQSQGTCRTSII

Biological target: human secretin receptor (human) (UniProt P47872)
Assay: FRET or BRET; competitive binding, dose response 10^-12 M to 10^-4 M of unlabelled peptide against 500 nM labelled hSCT on CHO-K1 cells with Lumi4-Tb-labelled SNAPtag-hSR, 4–8°C, 1 h; nonspecific signal with 100 μM unlabelled hSCT subtracted; four-parameter fit; only the binder purified

Binder: HSDGTFTSELSRLREGARLQRLLQGLVGC (Alexa Fluor 488 C5 maleimide on Cys29) [h[Gly^28, Alexa-Cys^29]SCT]
- binding: binds
